PubChem BioAssay AID2662 (National Center for Advancing Translational Sciences (NCATS), 2010)
Screen size: about 290,000 compounds; about 110 (0.038%) were called active. The inconclusive results got no clear call from the source; some entries with a clear call stand among them for comparison. Calls follow the shape of the dose curve; as a rule, active = well fitted inhibition curve with a large enough effect in the polarisation, with a control signal flat (not every such curve was filed as active); inconclusive = small, poorly fitted or top-dose-only effect, or effect the other way, or a change in a side signal; inactive = no such curve, though single readings can be large or run the other way; the % refers to the polarisation. Potencies of inconclusive entries are doubtful fits and often do not repeat. “Side channel” marks fits to a control or component signal instead of the main read-out.

Amino acid sequences for entries named in this document (tags omitted).
UniProt Q03164, whole entry, looked up: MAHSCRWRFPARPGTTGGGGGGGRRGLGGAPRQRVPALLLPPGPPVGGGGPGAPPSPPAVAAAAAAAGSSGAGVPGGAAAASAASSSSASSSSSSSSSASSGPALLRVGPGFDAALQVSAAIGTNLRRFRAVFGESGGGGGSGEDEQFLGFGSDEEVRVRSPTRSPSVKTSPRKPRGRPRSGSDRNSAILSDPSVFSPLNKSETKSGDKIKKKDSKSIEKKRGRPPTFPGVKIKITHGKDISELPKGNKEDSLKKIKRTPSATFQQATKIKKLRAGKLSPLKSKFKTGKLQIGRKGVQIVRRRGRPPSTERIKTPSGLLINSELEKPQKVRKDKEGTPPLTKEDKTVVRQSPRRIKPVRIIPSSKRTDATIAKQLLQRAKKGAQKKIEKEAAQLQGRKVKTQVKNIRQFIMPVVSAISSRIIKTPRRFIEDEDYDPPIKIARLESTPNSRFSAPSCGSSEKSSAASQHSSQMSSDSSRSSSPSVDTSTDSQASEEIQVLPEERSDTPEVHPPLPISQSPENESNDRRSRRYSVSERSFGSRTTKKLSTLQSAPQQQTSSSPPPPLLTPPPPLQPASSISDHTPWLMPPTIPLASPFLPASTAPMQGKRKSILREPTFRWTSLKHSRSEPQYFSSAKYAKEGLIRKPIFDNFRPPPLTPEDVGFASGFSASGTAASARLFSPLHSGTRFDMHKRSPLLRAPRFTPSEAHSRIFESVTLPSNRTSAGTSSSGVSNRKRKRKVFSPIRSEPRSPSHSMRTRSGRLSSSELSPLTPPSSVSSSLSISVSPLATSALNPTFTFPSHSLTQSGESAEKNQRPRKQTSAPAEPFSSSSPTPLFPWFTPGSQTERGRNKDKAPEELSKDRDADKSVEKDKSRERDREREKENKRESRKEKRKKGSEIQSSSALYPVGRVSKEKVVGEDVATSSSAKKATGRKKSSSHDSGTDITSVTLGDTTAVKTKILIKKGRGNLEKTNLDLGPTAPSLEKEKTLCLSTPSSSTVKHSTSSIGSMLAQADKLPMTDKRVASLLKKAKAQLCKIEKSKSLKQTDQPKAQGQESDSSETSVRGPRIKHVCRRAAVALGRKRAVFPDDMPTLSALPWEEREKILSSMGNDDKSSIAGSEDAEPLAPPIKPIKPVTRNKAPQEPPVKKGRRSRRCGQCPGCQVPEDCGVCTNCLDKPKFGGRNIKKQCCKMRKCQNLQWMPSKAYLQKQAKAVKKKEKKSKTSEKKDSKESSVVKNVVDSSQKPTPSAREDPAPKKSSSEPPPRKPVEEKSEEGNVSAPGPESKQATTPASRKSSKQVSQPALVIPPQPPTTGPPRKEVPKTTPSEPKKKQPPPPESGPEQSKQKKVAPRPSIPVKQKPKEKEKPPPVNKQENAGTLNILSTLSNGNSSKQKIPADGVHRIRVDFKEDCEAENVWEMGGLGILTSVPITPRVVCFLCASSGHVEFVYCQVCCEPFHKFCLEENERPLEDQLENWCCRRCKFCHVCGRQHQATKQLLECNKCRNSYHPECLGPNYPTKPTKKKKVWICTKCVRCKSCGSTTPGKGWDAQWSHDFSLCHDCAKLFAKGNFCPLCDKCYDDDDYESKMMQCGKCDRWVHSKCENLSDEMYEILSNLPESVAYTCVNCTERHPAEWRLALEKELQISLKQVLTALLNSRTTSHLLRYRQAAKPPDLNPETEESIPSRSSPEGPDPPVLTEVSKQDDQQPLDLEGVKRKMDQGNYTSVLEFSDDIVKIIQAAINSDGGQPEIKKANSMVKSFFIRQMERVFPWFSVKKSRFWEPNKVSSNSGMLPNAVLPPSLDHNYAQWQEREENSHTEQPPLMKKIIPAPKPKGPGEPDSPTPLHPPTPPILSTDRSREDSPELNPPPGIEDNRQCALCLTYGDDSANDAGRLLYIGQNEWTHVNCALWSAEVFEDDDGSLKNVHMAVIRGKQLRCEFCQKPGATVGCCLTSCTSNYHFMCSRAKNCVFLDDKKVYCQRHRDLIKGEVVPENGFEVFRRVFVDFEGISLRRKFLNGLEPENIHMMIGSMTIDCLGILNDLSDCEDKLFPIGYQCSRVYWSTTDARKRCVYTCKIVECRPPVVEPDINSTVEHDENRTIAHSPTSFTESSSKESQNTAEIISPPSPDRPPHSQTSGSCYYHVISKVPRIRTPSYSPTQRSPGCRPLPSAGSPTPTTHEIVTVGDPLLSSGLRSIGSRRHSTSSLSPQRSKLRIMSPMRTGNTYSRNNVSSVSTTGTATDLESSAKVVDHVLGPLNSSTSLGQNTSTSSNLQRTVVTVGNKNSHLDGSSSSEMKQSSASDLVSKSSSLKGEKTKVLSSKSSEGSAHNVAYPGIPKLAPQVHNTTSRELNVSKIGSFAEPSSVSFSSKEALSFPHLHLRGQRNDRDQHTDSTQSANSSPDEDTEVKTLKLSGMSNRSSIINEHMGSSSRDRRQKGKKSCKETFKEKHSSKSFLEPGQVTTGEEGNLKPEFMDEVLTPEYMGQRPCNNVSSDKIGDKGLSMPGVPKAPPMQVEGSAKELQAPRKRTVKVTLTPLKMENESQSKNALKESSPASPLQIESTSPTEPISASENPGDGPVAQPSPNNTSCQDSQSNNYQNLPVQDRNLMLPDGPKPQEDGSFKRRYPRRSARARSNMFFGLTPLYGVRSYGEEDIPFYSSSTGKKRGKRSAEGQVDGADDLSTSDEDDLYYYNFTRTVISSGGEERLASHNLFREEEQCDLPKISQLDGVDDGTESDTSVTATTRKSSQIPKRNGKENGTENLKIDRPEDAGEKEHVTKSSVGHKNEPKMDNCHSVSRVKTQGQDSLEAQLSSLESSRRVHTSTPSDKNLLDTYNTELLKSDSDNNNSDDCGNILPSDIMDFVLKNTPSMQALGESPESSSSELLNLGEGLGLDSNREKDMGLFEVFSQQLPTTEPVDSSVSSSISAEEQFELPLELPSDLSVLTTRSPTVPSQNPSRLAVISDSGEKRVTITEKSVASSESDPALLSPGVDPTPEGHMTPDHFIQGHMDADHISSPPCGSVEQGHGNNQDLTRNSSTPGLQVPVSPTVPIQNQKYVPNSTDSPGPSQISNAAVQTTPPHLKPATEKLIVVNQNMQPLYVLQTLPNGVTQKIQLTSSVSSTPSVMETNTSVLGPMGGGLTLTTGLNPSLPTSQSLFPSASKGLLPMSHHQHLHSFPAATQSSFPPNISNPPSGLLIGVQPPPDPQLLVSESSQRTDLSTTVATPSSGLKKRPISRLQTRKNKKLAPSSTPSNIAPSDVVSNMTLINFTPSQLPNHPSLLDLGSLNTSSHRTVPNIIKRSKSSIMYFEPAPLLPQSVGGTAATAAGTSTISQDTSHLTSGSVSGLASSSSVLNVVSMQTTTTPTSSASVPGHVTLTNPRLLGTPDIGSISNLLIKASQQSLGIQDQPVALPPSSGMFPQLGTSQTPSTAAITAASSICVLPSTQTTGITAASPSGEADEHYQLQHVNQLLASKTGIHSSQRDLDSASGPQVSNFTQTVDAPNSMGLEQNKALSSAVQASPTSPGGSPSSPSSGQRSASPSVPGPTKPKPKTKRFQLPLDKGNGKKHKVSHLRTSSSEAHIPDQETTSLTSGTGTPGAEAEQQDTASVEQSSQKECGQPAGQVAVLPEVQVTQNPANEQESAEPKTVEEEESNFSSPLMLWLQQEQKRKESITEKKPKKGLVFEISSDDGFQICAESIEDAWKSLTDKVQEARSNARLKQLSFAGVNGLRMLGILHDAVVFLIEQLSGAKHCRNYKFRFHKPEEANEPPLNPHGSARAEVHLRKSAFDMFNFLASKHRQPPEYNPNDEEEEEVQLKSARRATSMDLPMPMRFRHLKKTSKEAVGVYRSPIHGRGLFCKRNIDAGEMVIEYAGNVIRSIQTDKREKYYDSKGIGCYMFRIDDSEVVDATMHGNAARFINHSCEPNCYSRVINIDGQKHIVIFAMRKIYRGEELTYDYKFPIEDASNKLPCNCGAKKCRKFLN

molecular target: Histone-lysine N-methyltransferase 2A (Homo sapiens) (UniProt Q03164); experiment: qHTS Fluorescence Polarization Assay for Inhibitors of MLL CXXC domain - DNA interaction; settings: MLL-CXXC / FITC-HOXA9 DNA fluorescence polarization; activity change, negative = inhibition: at 115 µM (top of the series)
Outline: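 Steps: dispense CXXC domain solution (7 uM) → pin compounds or unlabeled HOX-A9 DNA control → 5 min ambient → add FLSN-HOX-A9 solution (50 nM) → spin → 30 min ambient → fluorescence polarization. Tris pH 7.5/NaCl/DTT/BSA buffer.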
Potency is read from the fitted curve at half-maximal effect.

Structure (SMILES) | Potency | activity change, negative = inhibition
O=C(NCCSCc1ccc(Cl)cc1)c1cccs1 | inconclusive: 63.1 µM [inhibitor, single point] | –
CC(=O)c1ccc(OC(=O)CCc2ccccc2)cc1 | – | inactive: 36.3%
CCOc1ccc(CC(=O)NCc2ccc3c(c2)cc(C)n3C)cc1 | – | inactive: 5.12%
C[C@@H]1NC(=O)N(CCCn2ccnc2)C1=O | inconclusive: 15.8 µM [fluorescent, side channel, single point] | –
Cc1c2ccccc2nc2c(F)c(N(C)C)c(F)c(F)c12 | inconclusive: 15.8 µM [fluorescent, side channel, partial curve] | –
O=C(COC(=O)CN1C(=O)c2ccccc2C1=O)Nc1ncc(Cl)cc1Cl | inconclusive: 15.8 µM [inhibitor, full curve] | –
CCOC(=O)N1CCN(c2ncnc3scc(-c4ccccc4)c23)CC1 | inconclusive: 35.5 µM [fluorescent, side channel, single point] | –
CCN(CC)CCOc1ccc2c(c1)C(=O)c1cc(OCCN(CC)CC)ccc1-2 | inconclusive: 39.8 µM [quencher, side channel, partial curve] | –
Nc1cc(N2CCCCCC2)c2nonc2c1[N+](=O)[O-] | inconclusive: 44.7 µM [inhibitor, single point] | –
C=CCn1c(N)c(C(=O)OCCC)c2nc3ccccc3nc21 | – | inactive: -0.581%
Cc1oc(C(C)(C)C)cc1C(=O)NC(Cc1ccccc1)C(=O)O (stereo unspecified) | inconclusive: 1.12 µM [inhibitor, partial curve, poor fit] | –
C=CCN1C(=NC(=O)CCC(=O)O)SC2CS(=O)(=O)CC21 (stereo unspecified) | inconclusive: 35.5 µM [inhibitor, single point] | –
Cc1nn(S(=O)(=O)N2CCOCC2)c(C)c1Br | inconclusive: 39.8 µM [fluorescent, side channel, single point] | –
Cc1ccccc1C(=O)NN1C(=O)CSC1=S | inconclusive: 14.1 µM [inhibitor, single point] | –
COc1ccc(OC)c(/C=C2\Oc3cc(OCC(=O)N4CCC[C@H]4C(=O)O)ccc3C2=O)c1 | inconclusive: 39.8 µM [fluorescent, side channel, partial curve] | –
O=C1CN(C(=S)NC(=O)c2ccccc2[N+](=O)[O-])CCN1 | inconclusive: 14.1 µM [quencher, side channel, single point] | –
Cn1c(=O)c2c(nc(NNC(=O)C(F)(F)F)n2C)n(C)c1=O | inconclusive: 14.1 µM [fluorescent, side channel, single point] | –
O=C(CSc1nnc2c3ccccc3c3ccccc3c2n1)Nc1ccccc1 | – | inactive: 4.85%
CCc1ccc(OCC(=O)NNC(=O)c2cnccn2)c(Br)c1 | inconclusive: 35.5 µM [quencher, side channel, single point] | –
CCOC(=O)c1c(OCC)[nH]c2c1cc(O)c1ccccc12 | – | inactive: 3.52%
O=C(CN1CCN(c2cccc(Cl)c2)CC1)NCc1ccccc1 | – | inactive: 2.47%

Part of the list above in order of number of heavy atoms, smallest number first:
Structure (SMILES) | Potency | activity change, negative = inhibition
O=C(NCCSCc1ccc(Cl)cc1)c1cccs1 | inconclusive: 63.1 µM [inhibitor, single point] | –
C=CCn1c(N)c(C(=O)OCCC)c2nc3ccccc3nc21 | – | inactive: -0.581%
CCOC(=O)N1CCN(c2ncnc3scc(-c4ccccc4)c23)CC1 | inconclusive: 35.5 µM [fluorescent, side channel, single point] | –

(cont.)

Structure (SMILES) | Potency | activity change, negative = inhibition
CCC(C)N(CCNC(=O)CC1Oc2ccccc2NC1=O)C1CCCCC1 (stereo unspecified) | inconclusive: 12.6 µM [fluorescent, side channel, single point] | –
CCC/C(=N\NC(=O)c1ccc(CSc2nncn2C)cc1)c1ccccc1 | inconclusive: 1.58 µM [fluorescent, side channel, full curve] | –
O=C(COc1cccnc1[N+](=O)[O-])Nc1cc(S(=O)(=O)N2CCCCC2)ccc1Cl | inconclusive: 100 µM [inhibitor, partial curve, poor fit] | –
COc1ccc(-c2c(C)nn3c(N4CCC5(CC4)OCCO5)cc(C)nc23)cc1OC | inconclusive: 14.1 µM [fluorescent, side channel, single point] | –
COc1ccccc1C1C2=C(COC2=O)Nc2cc3c(cc21)OCO3 (stereo unspecified) | inconclusive: 5.62 µM [quencher, side channel, full curve] | –
CCc1ccc(/C=C/C(=O)C2C(=O)c3ccccc3C2=O)cc1 | inconclusive: 7.08 µM [inhibitor, full curve] | –
Cc1ccc(C(=O)Nc2cc([N+](=O)[O-])ccc2F)s1 | inconclusive: 50.1 µM [inhibitor, single point] | –
CCCN1C=CC(=C/C=C(\C#N)C(=O)OCC)C=C1 | inconclusive: 25.1 µM [fluorescent, side channel, partial curve] | –
CC(=O)Nc1cccc(N(C)S(C)(=O)=O)c1 | – | inactive: 0.136%
CC1CN(c2ccc([N+](=O)[O-])c(NCCOc3ccc(Cl)cc3)c2)CC(C)N1 (stereo unspecified) | inconclusive: 25.1 µM [quencher, side channel, partial curve] | –
COc1ccc(C2C=C(c3ccc(Cl)cc3)Nc3nc(NC(C)=O)nn32)cc1 (stereo unspecified) | inconclusive: 31.6 µM [fluorescent, side channel, partial curve] | –
Cc1ccc(NC(=O)C2CCN(S(=O)(=O)c3ccc(F)cc3)CC2)cc1 | – | inactive: 2.82%
CCN(CC)C(=O)Cn1cc(C(=O)C(=O)Nc2ccc3c(c2)OCCO3)c2ccccc21 | inconclusive: 10 µM [activator, single point] | –
COc1cccc(/C=C2\SC(=S)N(CCCC(=O)Nc3cc(C)on3)C2=O)c1 | – | inactive: 6.44%
O=C(Oc1cccc(C(=S)N2CCOCC2)c1)c1ccc([N+](=O)[O-])cc1[N+](=O)[O-] | – | inactive: 14.2%
CC(C)NC(=S)NNc1nc2ccccc2s1 | – | inactive: -0.767%
COCCn1c(SCc2ccccc2)nc2c1c(=O)[nH]c(=O)n2C | inconclusive: 44.7 µM [fluorescent, side channel, partial curve] | –
CCOc1cccc(/C=N/N2C(=O)CSC2=S)c1O | inconclusive: 31.6 µM [fluorescent, side channel, partial curve] | –
C#CCNC(=O)C1=C[C@@H](c2ccc(Br)cc2)[C@H](CCCO)[C@@H](OCC)O1 | inconclusive: 100 µM [inhibitor, partial curve, poor fit] | –
CCOC(=O)C1=NN(c2ccccc2)C(=O)/C1=C\c1ccc(N(C)C)cc1 | inconclusive: 31.6 µM [inhibitor, single point] | –
